Data: PMC4371837

By UniProt entry, the sequences of proteins in these tests, tags left out.
UniProt Q8VIG1: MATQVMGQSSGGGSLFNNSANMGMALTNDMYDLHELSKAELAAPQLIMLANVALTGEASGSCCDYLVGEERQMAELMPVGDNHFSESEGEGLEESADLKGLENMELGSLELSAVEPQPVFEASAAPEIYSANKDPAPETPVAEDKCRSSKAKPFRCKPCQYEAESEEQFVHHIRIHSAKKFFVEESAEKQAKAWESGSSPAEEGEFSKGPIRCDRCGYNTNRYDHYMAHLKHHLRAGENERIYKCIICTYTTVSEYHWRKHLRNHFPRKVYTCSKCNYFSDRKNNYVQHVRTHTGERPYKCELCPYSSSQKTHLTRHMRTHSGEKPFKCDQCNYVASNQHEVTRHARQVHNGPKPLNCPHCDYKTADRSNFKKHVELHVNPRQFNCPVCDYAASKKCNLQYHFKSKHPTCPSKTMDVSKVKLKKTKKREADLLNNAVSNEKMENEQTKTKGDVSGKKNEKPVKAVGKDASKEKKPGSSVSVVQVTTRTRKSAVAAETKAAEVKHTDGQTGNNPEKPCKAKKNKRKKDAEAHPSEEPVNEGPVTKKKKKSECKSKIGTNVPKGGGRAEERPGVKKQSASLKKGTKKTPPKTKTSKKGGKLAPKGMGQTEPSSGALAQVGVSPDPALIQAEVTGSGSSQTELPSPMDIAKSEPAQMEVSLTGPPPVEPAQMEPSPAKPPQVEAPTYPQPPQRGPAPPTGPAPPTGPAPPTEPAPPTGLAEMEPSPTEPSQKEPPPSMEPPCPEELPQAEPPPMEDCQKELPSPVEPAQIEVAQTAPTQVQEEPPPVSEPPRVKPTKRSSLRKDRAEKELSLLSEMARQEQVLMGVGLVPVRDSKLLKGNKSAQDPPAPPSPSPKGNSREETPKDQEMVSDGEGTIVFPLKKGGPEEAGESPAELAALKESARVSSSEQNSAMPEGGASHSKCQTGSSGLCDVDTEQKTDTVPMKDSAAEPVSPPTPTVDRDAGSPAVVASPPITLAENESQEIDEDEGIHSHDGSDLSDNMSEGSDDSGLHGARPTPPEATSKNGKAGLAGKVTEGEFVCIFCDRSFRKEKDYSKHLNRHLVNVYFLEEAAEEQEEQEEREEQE

Target: Flag-BioT-mREST (mouse REST tagged with a biotin acceptor sequence) (mouse) (UniProt Q8VIG1)
Assay: affinity purification with mass spectrometry; biotin-tagged REST captured on streptavidin M-280 magnetic beads from cleared whole-cell lysate of mouse ESCs (clone #60), 4°C, 3 hr, 50 mM Tris-Cl pH 7.5, 150 mM NaCl, 0.5% Triton X-100, 0.5 mM EDTA, 10% glycerol; MudPIT on three independent purifications; parental BirA-J1 cells as control

B1: Wwox (protein, UniProt Q91WL8 1-414)
chain: MAALRYAGLDDTDSEDELPPGWEERTTKDGWVYYANHTEEKTQWEHPKTGKRKRVAGDLPYGWEQETDENGQVFFVDHINKRTTYLDPRLAFTVDDNPTKPTTRQRYDGSTTAMEILQGRDFTGKVVLVTGANSGIGFETAKSFALHGAHVILACRNLSRASEAVSRILEEWHKAKVEAMTLDLAVLRSVQHFAEAFKAKNVSLHVLVCNAGTFALPWGLTKDGLETTFQVNHLGHFYLVQLLQDVLCRSSPARVIVVSSESHRFTDINDSSGKLDLSRLSPPRSDYWAMLAYNRSKLCNILFSNELHRRLSPRGVTSNAVHPGNMMYSAIHRNSWVYKLLFTLARPFTKSMQQGAATTVYCAVAPELEGLGGMYFNNCCRCLPSEEAQSEETARALWELSERLIQDRLGSPSS
For B1, the binding was “binds”.

B2: Pura (protein, UniProt P42669 1-321)
chain: MADRDSGSEQGGAALGSGGSLGHPGSGSGSGGGGGGGGGGGGSGGGGGAPGGLQHETQELASKRVDIQNKRFYLDVKQNAKGRFLKIAEVGAGGNKSRLTLSMSVAVEFRDYLGDFIEHYAQLGPSQPPDLAQAQDEPRRALKSEFLVRENRKYYMDLKENQRGRFLRIRQTVNRGPGLGSTQGQTIALPAQGLIEFRDALAKLIDDYGVEEEPAELPEGTSLTVDNKRFFFDVGSNKYGVFMRVSEVKPTYRNSITVPYKVWAKFGHTFCKYSEEMKKIQEKQREKRAACEQLHQQQQQQQEETTAATLLLQGEEEGEED
B2 was tested, and the binding was “binds”.

No constants are given. Whether binding was seen depends on the method and setting. Binding seen in cells or lysates may run through a third protein. Here binding means that the protein was enriched with, or labelled near, the bait; the list need not be complete.
